The match of structure and compound is tentative.

A word on the CC50: it is the concentration at which the toxic effect on the cells reaches its halfway point.

The subject of the series is MT-2 cells. The series is described as follows: Cytotoxicity Cell Culture Assay (CC50), XTT. As to conditions: read-out: Cytotoxicity CC50, 5 days.

For the compound `COc1ccc(S(=O)(=O)N(CC(C)C)C[C@@H](O)[C@H](Cc2ccc(OCP(=O)(Oc3ccccc3)Oc3ccccc3)cc2)NC(=O)O[C@H]2CO[C@H]3OCC[C@H]32)cc1` [drawing 651 R1=OPh R2=OPh], the CC50 turned out to be 35 µM.

For the origin of these results see US20060115815A1 (priority 2002, published 2006).
